Results reported in the supplement of paper PMC10331698.
± gives the standard deviation of the averaged measurements. Small differences around the control level are noise.

Columns and labels:
Experiment in all cases: level (log10 ratio to DMSO vehicle control); higher = higher biomarker level / cell amount than vehicle control
[1] = compound: FC(F)(F)C(F)(F)C(F)(F)C(F)(F)C(F)(F)C(F)(F)CC1CO1 [3-(Perfluorohexyl)-1,2-epoxypropane]; conditions: 2200 nM; in DMSO
Experimental: (§1)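 BioMAP Diversity Plus panel of 12 human primary cell co-culture systems (3C, 4H, LPS, SAg, BT, BF4T, BE3C, CASM3C, HDF3CGF, KF3CT, MyoF, Mphg). Compounds were added 1 h before stimulation and left for 24 h (MyoF 48 h; BT 72 h for soluble read-outs or 6 d for IgG). Biomarkers were read by ELISA, cytotoxicity by SRB, PBMC viability and proliferation by Alamar Blue. Each well value was divided by the mean of 8 DMSO control wells on the same plate and log10 transformed; duplicate blinded samples were tested at 4 concentrations.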

1-(Perfluorohexyl)octane = compound: CCCCCCCCC(F)(F)C(F)(F)C(F)(F)C(F)(F)C(F)(F)C(F)(F)F [1-(Perfluorohexyl)octane]; conditions: in DMSO
Experimental: as §1

Perfluoroheptanoic acid = compound: O=C(O)C(F)(F)C(F)(F)C(F)(F)C(F)(F)C(F)(F)C(F)(F)F [Perfluoroheptanoic acid]; conditions: in DMSO
Experimental: as §1

[2] = compound: Cc1ccc(S(=O)(=O)OCC(F)(F)C(F)(F)C(F)(F)C(F)(F)C(F)(F)C(F)F)cc1 [1H,1H,7H-Perfluoroheptyl 4-methylbenzenesulfonate]; conditions: 2200 nM; in DMSO
Experimental: as §1

[3] = compound: CC(C)(C)C(=O)CC(=O)C(F)(F)C(F)(F)C(F)(F)F [(Heptafluorobutanoyl)pivaloylmethane]; conditions: 2200 nM; in DMSO
Experimental: as §1

Perfluoropentanoic acid = compound: O=C(O)C(F)(F)C(F)(F)C(F)(F)C(F)(F)F [Perfluoropentanoic acid]; conditions: in DMSO
Experimental: as §1

[4] = compound: CCN(CCO)S(=O)(=O)C(F)(F)C(F)(F)C(F)(F)C(F)(F)C(F)(F)C(F)(F)C(F)(F)C(F)(F)F [N-Ethyl-N-(2-hydroxyethyl)perfluorooctanesulfonamide]; conditions: in DMSO
Experimental: as §1

[5] = compound: CN(C(=O)C(F)(F)C(F)(F)C(F)(F)F)[Si](C)(C)C [N-Methyl-N-trimethylsilylheptafluorobutyramide]; conditions: 2200 nM; in DMSO
Experimental: as §1

[6] = compound: O=S(=O)(O)CCC(F)(F)C(F)(F)C(F)(F)C(F)(F)C(F)(F)C(F)(F)C(F)(F)C(F)(F)F [8:2 Fluorotelomer sulfonic acid]; conditions: in DMSO
Experimental: as §1

[7] = compound: O=C(O)C(F)(F)C(F)(F)C(F)(F)C(F)(F)C(F)(F)C(F)(F)C(F)(F)C(F)(F)C(F)(F)C(F)F [11-H-Perfluoroundecanoic acid]; conditions: 2200 nM; in DMSO
Experimental: as §1

Heptafluorobutyramide = compound: NC(=O)C(F)(F)C(F)(F)C(F)(F)F [Heptafluorobutyramide]; conditions: 2200 nM; in DMSO
Experimental: as §1

1H,1H-Heptafluorobutanol = compound: OCC(F)(F)C(F)(F)C(F)(F)F [1H,1H-Heptafluorobutanol]; conditions: 2200 nM; in DMSO
Experimental: as §1

[8] = compound: O=C(O)C(F)(F)C(F)(F)C(F)(F)OC(F)(F)F [Perfluoro(4-methoxybutanoic) acid]; conditions: 2200 nM; in DMSO
Experimental: as §1

Octafluoroadipic acid = compound: O=C(O)C(F)(F)C(F)(F)C(F)(F)C(F)(F)C(=O)O [Octafluoroadipic acid]; conditions: 2200 nM; in DMSO
Experimental: as §1

[9] = compound: NCC(F)(F)C(F)(F)C(F)(F)C(F)(F)C(F)(F)C(F)(F)C(F)(F)F [1H,1H-Perfluorooctylamine]; conditions: 2200 nM; in DMSO
Experimental: as §1

[10] = compound: OCCC(F)(F)C(F)(F)C(F)(F)C(F)(F)C(F)(F)C(F)(F)F [6:2 Fluorotelomer alcohol]; conditions: 2200 nM; in DMSO
Experimental: as §1

Test System	level (log10) [1]	level (log10) (1-(Perfluorohexyl)octane; 740 nM)	level (log10) (1-(Perfluorohexyl)octane; 2200 nM)	level (log10) (Perfluoroheptanoic acid; 2200 nM)	level (log10) (Perfluoroheptanoic acid; 6700 nM)	level (log10) (Perfluoroheptanoic acid; 20000 nM)	level (log10) (Perfluoroheptanoic acid; 60000 nM)	level (log10) [2]	level (log10) [3]	level (log10) (Perfluoropentanoic acid; 2200 nM)	level (log10) (Perfluoropentanoic acid; 6700 nM)	level (log10) (Perfluoropentanoic acid; 20000 nM)	level (log10) (Perfluoropentanoic acid; 60000 nM)	level (log10) ([4]; 2200 nM)	level (log10) ([4]; 6700 nM)	level (log10) ([4]; 20000 nM)	level (log10) [5]	level (log10) ([6]; 2200 nM)	level (log10) ([6]; 6700 nM)	level (log10) ([6]; 20000 nM)	level (log10) ([6]; 60000 nM)	level (log10) [7]	level (log10) (Heptafluorobutyramide)	level (log10) (1H,1H-Heptafluorobutanol)	level (log10) [8]	level (log10) (Octafluoroadipic acid)	level (log10) [9]	level (log10) [10]
4H:SRB	0.0045 ± 0.0021	0.0325 ± 0.015	0.01 ± 0.034	-0.009 ± 0.0099	-0.0035 ± 0.005	0.0135 ± 0.026	-0.024 ± 0.021	0.0135 ± 0.036	0.003 ± 0.011	-0.016 ± 0.0028	-0.0125 ± 0.00071	-0.0065 ± 0.016	-0.0025 ± 0.021	-0.028 ± 0.011	-0.016 ± 0.0057	-0.0605 ± 0.029	0.0195 ± 0.022	-0.0125 ± 0.012	-0.012 ± 0.0014	-0.0135 ± 0.012	-0.018 ± 0.033	0.02 ± 0.021	-0.0155 ± 0.0064	0.0045 ± 0.025	-0.008 ± 0.0014	-0.0195 ± 0.005	0.004 ± 0.014	-0.0125 ± 0.005
4H:VEGFR2	-0.0005 ± 0.0078	0.047 ± 0.072	0.0095 ± 0.032	0.023 ± 0.052	0.016 ± 0.027	0.022 ± 0.013	0.012 ± 0.054	0.045 ± 0.072	0.0245 ± 0.03	0.011 ± 0.057	0.0065 ± 0.056	0.0025 ± 0.013	0.008 ± 0.025	-0.0035 ± 0.005	0.0365 ± 0.0092	0.002 ± 0.0042	0.031 ± 0.0042	0.025 ± 0.048	-0.0345 ± 0.12	0.003 ± 0.0014	-0.026 ± 0.0028	0.018 ± 0.016	0.0295 ± 0.0064	0.037 ± 0.024	0.024 ± 0.028	0.0185 ± 0.029	0.0355 ± 0.025	-0.008 ± 0.013
BE3C:CD54/ICAM-1	0.0005 ± 0.033	0.011 ± 0.023	0.004 ± 0.017	0.0045 ± 0.032	-0.007 ± 0.0071	-0.023 ± 0.0028	-0.0055 ± 0.022	0.0085 ± 0.0092	-0.0045 ± 0.029	0.0085 ± 0.025	-0.006 ± 0.0085	-0.0095 ± 0.00071	0.0055 ± 0.039	0.0375 ± 0.0092	0.0705 ± 0.033	0.0555 ± 0.013	-0.02 ± 0.016	-0.001 ± 0.014	0.0215 ± 0.018	0.013 ± 0.0042	-0.02 ± 0.014	-0.002 ± 0.028	-0.0015 ± 0.0092	0.0185 ± 0.0092	-0.007 ± 0.014	-0.0015 ± 0.018	0.0125 ± 0.0064	0.0215 ± 0.05
BE3C:CD87/uPAR	0.0155 ± 0.09	0.0155 ± 0.028	0.014 ± 0.0028	0.0185 ± 0.005	-0.0275 ± 0.026	-0.049 ± 0.033	-0.05 ± 0.054	0.0315 ± 0.0035	0.0115 ± 0.036	0.018 ± 0.048	-0.0035 ± 0.063	-0.0235 ± 0.026	0.024 ± 0.0014	0.0405 ± 0.012	0.012 ± 0.016	-0.024 ± 0.028	0.023 ± 0.0099	0.0105 ± 0.021	0.0225 ± 0.0035	0.0135 ± 0.011	-0.01 ± 0.031	-0.006 ± 0.02	-0.004 ± 0.034	0.015 ± 0.033	-0.0195 ± 0.029	0.0005 ± 0.0021	-0.003 ± 0.0028	0.0105 ± 0.061
BE3C:CXCL8/IL-8	0.023 ± 0.069	0.0495 ± 0.16	0.017 ± 0.065	0.0585 ± 0.019	0.033 ± 0.041	0.008 ± 0.042	0.0205 ± 0.1	0.0135 ± 0.1	0.0175 ± 0.044	-0.008 ± 0.041	-0.023 ± 0.0042	-0.036 ± 0.017	-0.0085 ± 0.057	-0.0055 ± 0.028	-0.0825 ± 0.013	-0.218 ± 0.056	0.063 ± 0.0028	0.0155 ± 0.015	-0.0045 ± 0.022	-0.06 ± 0.0014	-0.134 ± 0.005	0.021 ± 0.071	0.059 ± 0.034	0.031 ± 0.027	0.069 ± 0.057	0.0615 ± 0.013	-0.0035 ± 0.016	0.0165 ± 0.07
BE3C:CXCL9/MIG	0.0135 ± 0.036	0.005 ± 0.0028	0.0015 ± 0.0021	0.02 ± 0.016	0 ± 0.0014	0.0065 ± 0.011	0.012 ± 0.017	-0.007 ± 0.011	0.003 ± 0.0057	0.006 ± 0.013	-0.0035 ± 0.0092	-0.012 ± 0.013	0.007 ± 0.018	-0.01 ± 0.0057	-0.006 ± 0.0028	-0.0285 ± 0.0035	-0.008 ± 0.013	-0.0005 ± 0.0064	-0.002 ± 0.0085	-0.015 ± 0.0028	-0.03 ± 0.011	-0.007 ± 0.018	0.002 ± 0.021	-0.003	0.01 ± 0.017	0.002 ± 0.014	0.0115 ± 0.0078	0.0035 ± 0.018
BE3C:CXCL10/IP-10	0.0095 ± 0.0078	0.0025 ± 0.018	-0.0035 ± 0.0078	0.0025 ± 0.0078	0.0055 ± 0.022	0.0065 ± 0.0092	0.0045 ± 0.011	-0.0055 ± 0.016	0.0115 ± 0.06	0.0055 ± 0.022	-0.0085 ± 0.016	-0.013 ± 0.021	0.0005 ± 0.005	-0.0175 ± 0.013	-0.051 ± 0.0028	-0.141 ± 0.028	-0.0015 ± 0.00071	-0.005 ± 0.0085	-0.0205 ± 0.012	-0.122 ± 0.019	-0.237 ± 0.02	-0.03 ± 0.0014	0.002 ± 0.0099	0.0335 ± 0.0078	0.0025 ± 0.021	0.0165 ± 0.00071	0.002 ± 0.0071	0.01 ± 0.0099
BE3C:CXCL11/I-TAC	-0.003 ± 0.0085	0.014 ± 0.024	-0.008 ± 0.014	-0.016 ± 0.014	0.0065 ± 0.015	-0.011 ± 0.0042	-0.003 ± 0.0042	-0.002 ± 0.011	0.004 ± 0.044	0.003 ± 0.0057	-0.0175 ± 0.012	-0.015 ± 0.0028	-0.005 ± 0.014	-0.0065 ± 0.028	-0.006 ± 0.023	-0.0035 ± 0.029	-0.008 ± 0.0042	0.0225 ± 0.061	0.0385 ± 0.0021	0.016 ± 0.0071	-0.0915 ± 0.015	-0.0295 ± 0.015	-0.01 ± 0.0042	0.0135 ± 0.019	0.0005 ± 0.0035	-0.0005 ± 0.00071	0.0035 ± 0.0021	-0.004 ± 0.011
